In the supplement of paper PMC7238544:
± gives the standard deviation of the averaged measurements. The list shows a part of the results. The data scatter; read single values as rough.

Legend:
[1] = test system: hAMSC donor 1; assay: Hoechst total cell count ratio vs vehicle control; higher = more cells (less toxicity)
[2] = test system: hAMSC donor 2; assay: as above
[3] = test system: hAMSC donor 1; assay: transgenic luciferase activity (RLU/mg protein) fold change vs vehicle control (ratio); higher = more transgene expression
[4] = test system: hAMSC donor 2; assay: as above
[5] = test system: hAMSC donor 1; assay: transfection efficiency (EGFP+ cells / Hoechst count) fold change vs vehicle control (ratio); hAMSC are human adipose-derived mesenchymal stem cells given an EGFP-luciferase plasmid by lipofection; higher = enhanced transfection
[6] = test system: hAMSC donor 2; assay: as above
[7] = priming compound concentration 0.2 µM
[8] = priming compound concentration 1.7 µM
[9] = priming compound concentration 13 µM

Compound	Hoechst total cell count ratio [1, 7]	Hoechst total cell count ratio [1, 8]	Hoechst total cell count ratio [1, 9]	Hoechst total cell count ratio [2, 7]	Hoechst total cell count ratio [2, 8]	Hoechst total cell count ratio [2, 9]	transgenic luciferase activity [3, 7]	transgenic luciferase activity [3, 8]	transgenic luciferase activity [4, 7]	transgenic luciferase activity [4, 8]	transgenic luciferase activity [4, 9]	transfection efficiency [5, 7]	transfection efficiency [5, 8]	transfection efficiency [5, 9]	transfection efficiency [6, 7]	transfection efficiency [6, 8]	transfection efficiency [6, 9]	transgenic luciferase activity [3, 9]
NS(=O)(=O)c1cc2c(cc1C(F)(F)F)NC(Cc1ccccc1)NS2(=O)=O (centres undefined) [Bendrofluazide]	1.19 ± 0.024	1.19 ± 0.043	1.29 ± 0.037	0.948 ± 0.09	1.11 ± 0.34	0.964 ± 0.055	0.659 ± 0.31	1.47 ± 0.24	1.2 ± 0.24	0.982 ± 0.14	1.18 ± 0.32	1.3 ± 0.38	1.07 ± 0.55	0.763 ± 0.15	0.971 ± 0.3	1.06 ± 0.52	1.38 ± 0.4	
COc1cc(NC(C)CCCN)c2ncccc2c1 (centres undefined) [Primaquine diphosphate]	1.08 ± 0.044	1.01 ± 0.11	1.02 ± 0.071	1.04 ± 0.12	0.982 ± 0.14	0.886 ± 0.079	0.56 ± 0.3	0.997 ± 0.39	0.647 ± 0.22	1.18 ± 0.23	0.357 ± 0.094	0.839 ± 0.15	1.69 ± 0.89	0.509 ± 0.099	0.992 ± 0.31	1.14 ± 0.096	0.853 ± 0.14	
COC(=O)[C@H](c1ccccc1Cl)N1CCc2sccc2C1 [Clopidogrel]	1.37 ± 0.23	1.07 ± 0.058	1.24 ± 0.32	1.19 ± 0.15	1.17 ± 0.088	1.5 ± 0.092		1.46 ± 0.21	0.812 ± 0.18	0.585 ± 0.041	0.51 ± 0.17	0.733 ± 0.47	1.26 ± 0.46	1.21 ± 0.31	0.889 ± 0.11	1.03 ± 0.17	0.879 ± 0.089	1.04 ± 0.84
C[C@@H]1C/C=C/C=C/C=C/C=C/[C@H](O[C@@H]2O[C@H](C)[C@@H](O)[C@H](N)[C@@H]2O)C[C@@H]2O[C@](O)(C[C@@H](O)C[C@H]3O[C@@H]3/C=C/C(=O)O1)C[C@H](O)[C@H]2C(=O)O [Natamycin]	1.15 ± 0.036	1.23 ± 0.074	1.37 ± 0.038	1.05 ± 0.11	1.3 ± 0.099	1.92 ± 0.18		0.234 ± 0.062	0.504 ± 0.13	0.457 ± 0.012	0.214 ± 0.061	1.14 ± 0.36	1.23 ± 0.58	0.757 ± 0.14	1.03 ± 0.11	0.828 ± 0.052	0.37 ± 0.023	0.71 ± 0.27
NCc1ccc(S(N)(=O)=O)cc1 [Mafenide acetate]	1.48 ± 0.048	1.23 ± 0.093	1.39 ± 0.25	1.13 ± 0.055	1.2 ± 0.027	1.23 ± 0.11		1.18 ± 0.47	0.681 ± 0.45	0.593 ± 0.064	0.656 ± 0.035	0.614 ± 0.18	0.983 ± 0.077	0.785 ± 0.059	0.948 ± 0.051	0.904 ± 0.048	1.08 ± 0.34	0.414 ± 0.35
COc1ccc(C2CNC(=O)C2)cc1OC1CCCC1 (centres undefined) [Rolipram]	1.33 ± 0.25	1.25 ± 0.18	1.18 ± 0.18	1.13 ± 0.082	1.37 ± 0.067	1.45 ± 0.42		0.556 ± 0.15	0.399 ± 0.098	0.684 ± 0.086	0.778 ± 0.14	0.796 ± 0.28	0.962 ± 0.31	1.27 ± 0.59	0.675 ± 0.11	0.962 ± 0.17	0.919 ± 0.17	1.31 ± 0.64
C[n+]1ccccc1/C=N/O [Pralidoxime chloride]	0.895 ± 0.031	0.926 ± 0.07	1.04 ± 0.18	1.1 ± 0.1	1.13 ± 0.16	1.18 ± 0.022		0.357 ± 0.045	0.733 ± 0.092	0.964 ± 0.094	0.651 ± 0.12	0.655 ± 0.32	1.47 ± 0.31	0.801 ± 0.32	0.769 ± 0.068	1.29 ± 0.074	0.951 ± 0.11	1.01 ± 0.47
